## Primary screen of a compound library

The chains behind the UniProt entries cited, without tags or fusion partners. Residues count along the entry.
UniProt P9WFT3, whole entry: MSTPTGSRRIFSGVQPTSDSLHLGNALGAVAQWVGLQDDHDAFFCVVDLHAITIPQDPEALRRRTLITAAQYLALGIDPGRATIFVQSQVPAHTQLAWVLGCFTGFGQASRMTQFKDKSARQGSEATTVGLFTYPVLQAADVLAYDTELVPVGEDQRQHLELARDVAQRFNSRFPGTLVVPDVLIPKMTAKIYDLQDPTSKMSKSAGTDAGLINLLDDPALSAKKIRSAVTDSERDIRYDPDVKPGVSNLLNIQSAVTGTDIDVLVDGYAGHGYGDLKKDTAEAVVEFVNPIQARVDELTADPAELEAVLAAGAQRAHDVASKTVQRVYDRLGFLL
UniProt Q4DA54, 1-478: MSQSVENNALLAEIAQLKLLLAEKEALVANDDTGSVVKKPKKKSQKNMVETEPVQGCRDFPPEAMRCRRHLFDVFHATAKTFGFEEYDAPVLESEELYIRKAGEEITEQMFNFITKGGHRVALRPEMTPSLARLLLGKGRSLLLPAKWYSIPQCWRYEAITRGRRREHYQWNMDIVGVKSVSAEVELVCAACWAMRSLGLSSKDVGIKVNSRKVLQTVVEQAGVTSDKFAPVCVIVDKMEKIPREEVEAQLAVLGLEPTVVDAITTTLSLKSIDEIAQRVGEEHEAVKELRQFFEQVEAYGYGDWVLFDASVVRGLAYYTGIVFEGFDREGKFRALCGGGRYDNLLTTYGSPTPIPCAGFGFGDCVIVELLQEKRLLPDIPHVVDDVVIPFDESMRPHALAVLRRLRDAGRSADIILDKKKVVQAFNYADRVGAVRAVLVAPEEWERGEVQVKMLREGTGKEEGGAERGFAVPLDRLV

MtTrpRS: 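Tryptophan-tRNA ligase, Mycobacterium tuberculosis (UniProt P9WFT3). Enzyme assay of tryptophanyl-tRNA synthetase; the read-out is not stated. Tested at 10 µM. Higher most likely means stronger inhibition; the record gives no direction and few retests gave an IC50. Of about 65,000 compounds tested this way, about 64 (0.098%) reached 50% or more in at least one test.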
Leishmania in macrophages: 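Cell assay of Leishmania donovani living inside macrophages; the read-out is not stated. Tested at 30 µM. Higher reads as stronger inhibition (inferred: compounds with an IC50 in retests scored well above the rest). Of about 69,000 compounds tested this way, about 1,000 (1.5%) reached 50% or more in at least one test.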
TcHisRS: 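Histidine-tRNA ligase, Trypanosoma cruzi CL Brener (UniProt Q4DA54). Enzyme assay of histidyl-tRNA synthetase; the read-out is not stated. Tested at 30 µM. Higher reads as stronger inhibition (inferred: compounds with an IC50 in retests scored well above the rest). Size under these conditions: about 69,000 compounds, about 31 of them at 50% or above in at least one test.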

Results are given as percent effect.
The controls that fix the scale are not given in the record; negative values are as filed.
The compounds are a random part of those screened.
Two or more numbers in one place are separate tests of the same structure; such repeats can differ widely.
A dash means the value is not listed here; it may have been measured.

| # | structure | MtTrpRS | Leishmania in macrophages | TcHisRS |
|---|---|---|---|---|
| 1 | `CCCC(C)CN1CCC(n2cc(C3CCCC3)nn2)CC1` (stereo not given) | 3.552% | 29.96% | 1.245% |
| 2 | `CN1CC[C@]2(CN(CC3CCOCC3)C[C@H]2c2ccccc2)C1=O.O=C(O)C(F)(F)F` | - | -12.75% | - |
| 3 | `[H][C@@]12C[C@@H](c3nnc(C4CC4)o3)O[C@]1([H])CN(C(=O)c1cccn1C)C2` | - | -7.864% | - |
| 4 | `Cc1cc2nccc(C3CCCN(C(=O)c4cnccn4)C3)n2n1` (stereo not given) | -6.368% | -27.1% | 6.977% |
| 5 | `Cc1cccc2c(CCNC(=O)NCC[S+](C)[O-])c[nH]c12` (stereo not given) | -4.782% | -7.344% | 5.946% |
| 6 | `Cc1cccc(CN2Cc3ccnn3CC(COCC3CC3)C2)n1` (stereo not given) | -5.754% | - | 4.132% |
| 7 | `COc1cc(Cl)ccc1CNC(=O)N1CCC(n2cncn2)CC1` | -0.4259% | -1.384% | 2.006% |
| 8 | `O=C(c1csc2nc(-c3ccc(Cl)cc3)cn12)N1CCCC(CO)C1` (stereo not given) | -0.297% | -3.231% | 19.71% |
| 9 | `CCOCCCNC(=O)CN(c1ccc(C)c(C)c1)S(C)(=O)=O` | -5.272% | 15.53% | 2.959% |
| 10 | `O=C1CCCCCN1Cc1cccc(OC(F)F)c1` | -1.497% | -5.171% | 2.609% |
| 11 | `N#Cc1ccc(CN2C[C@@H]3OCC(=O)N[C@@H]3C2)cc1` | -10.39% | - | 2.174% |
| 12 | `CC(C)c1ncc(CN2CCC(O)(c3ccccc3F)CC2)cn1` | 1.797% | 29.24% | 2.273% |
| 13 | `C=Cc1ccc(CSc2nc3c(c(=O)[nH]2)CN(CCC)CC3)cc1` | 0.6839% | 10.13% & -14.75% | 9.278% |
| 14 | `O=C(O)C(F)(F)F.[H][C@@]12C[C@@H](c3nc(C)no3)O[C@]1([H])CN(C(=O)C1CCN(C)CC1)C2` | - | 33.07% | - |
| 15 | `Cc1cccc(-c2noc([C@@H]3C[C@@H](O)CN3C3CCOCC3)n2)c1` | -4.173% | -1.131% | 4.348% |
| 16 | `CC(C#N)CNC(=O)Nc1ccc(Br)cc1` (stereo not given) | 1.312% | 6.996% | 10.83% |
| 17 | `O=C(NC1CCCC1)c1cnn2c(-c3ccco3)ccnc12` | -5.716% | 9.014% | -4.867% |
| 18 | `CC(NC(=O)NCCOc1ccc(Cl)cc1)c1nncn1C` (stereo not given) | 0.08136% | -12.54% | 2.521% |
| 19 | `Cn1ccc(C(=O)NC2CCN(c3ncccn3)CC2)cc1=O` | 2.426% | 18.24% | -0.7519% |
| 20 | `Cc1cc(NC(=O)NCc2ccccc2OC(F)F)n(C)n1` | -2.827% | -2.692% | 1.88% |
| 21 | `CCNC(=O)C1CCCN(C(=O)Nc2ccc3c(c2)CCCN3C)C1` (stereo not given) | -2.683% | 22.35% | 5.263% |
| 22 | `Cc1nc(-c2cc(C(=O)N3CCCN(C)CC3)c3ccccn23)cn1C.O=C(O)C(F)(F)F` | - | 4.465% | - |
| 23 | `COCC(=O)N1CCC(c2c(C(=O)N(C)C)sc3ncccc23)C1` (stereo not given) | 6.984% | -14.98% | 1.13% |
| 24 | `O=C(NCC1CC1)N1CCN(Cc2ccc3c(c2)OCCO3)CC1` | 0.09747% | -9.431% | 1.515% |
| 25 | `CS(=O)(=O)N1CC2(CCN(C(=O)c3ccncc3)CC2)c2ccccc21` | -6.977% | - | 7.767% |
| 26 | `Cc1cc(CN2CCN(C(=O)C(C(C)C)n3cncn3)CC2)no1` (stereo not given) | 3.809% | -0.7536% | 1.345% |
| 27 | `COCC1CN(Cc2csc(C)n2)Cc2nccn2C1` (stereo not given) | 1.907% | - | 2.488% |
| 28 | `O=C(CN1CCOC(c2ccccc2C(F)(F)F)C1)NC1CC1` (stereo not given) | 5.29% | -2.228% | 1.724% |
| 29 | `O=C(CC1CC1)NCc1cn2c(n1)CN(CC1CC1)CC2.O=C(O)C(F)(F)F` | - | 10.76% | - |
| 30 | `CCC(CN1CCOCC1)n1cncc1-c1ccc2c(c1)CCN2CC.Cl` (stereo not given) | - | 4.25% | - |
| 31 | `CN(Cc1ccccc1F)C(=O)COC(=O)c1cc(Cl)c[nH]1` | -4.984% | -31.43% | -0.9901% |
| 32 | `Cn1ncc2c(N3CCCC4(CCNC4)C3)nc(C(C)(C)C)nc21` (stereo not given) | -2.236% | 88.19% | 5.747% |
| 33 | `O=C(Nc1cccnc1N1CCSCC1)c1ccc2c(c1)CCC2` | -4.863% | 44.22% | 6.077% |
| 34 | `CC(C)N1CCC(CC(=O)N2CCC(C(O)c3nccn3C)CC2)CC1` (stereo not given) | -5.638% | -0.2323% | -32.34% |
| 35 | `CN(C)CC(=O)N1C[C@@H](Oc2ccccn2)[C@H]2OCCC[C@H]21` | 13.47% | - | -2.151% |
| 36 | `CN(C)C(=O)CN1CCCCC1c1nc(N)ncc1-c1ccc(Cl)cc1` (stereo not given) | - | 17.34% | -4.494% |
| 37 | `O=C(c1ccsc1)N1CCc2c(CN3CCCC3)n[nH]c2C1` | -5.297% | 21.5% | 8.458% |
| 38 | `Cn1c(C(=O)N2CCc3[nH]cnc3C2C(=O)O)ccc1-c1ccccc1` (stereo not given) | -2.506% | 5.791% | 1.117% |
| 39 | `COc1ccc(C[C@H]2CN(C(=O)c3ccn(C)n3)CC[C@H]2OC)cc1` | -3.343% | 7.736% | 0.9709% |
| 40 | `CCc1c(C(=O)NC2CCS(=O)(=O)C2)cnn1-c1ccc(C)cc1` (stereo not given) | 1.557% | -14.13% | 0.5764% |
| 41 | `OC(COc1ccc2c(c1)OCO2)CN1CC(n2cccn2)C1` (stereo not given) | -0.07764% | 14.13% | 9.278% |
| 42 | `CC(=O)N[C@@H]1CN(Cc2nnc(-c3ccccc3)o2)C[C@H]1C(C)C` | -0.892% | 10.97% | 5.82% |
| 43 | `Cc1nn(C)c2ncnc(N3CCCC(OCc4cccnc4)C3)c12` (stereo not given) | 2.519% | 26.99% | 2.041% |
| 44 | `CC(O)CN(c1ccccc1)S(=O)(=O)c1cc(C(=O)O)cc2c1CCC2` (stereo not given) | 3.302% | -1.571% | -1.316% |
| 45 | `COc1cccc([C@@H]2CCN(Cc3cn(C)c4ccccc34)C[C@H]2O)c1` | -0.9889% | 23.03% | 1.212% |
| 46 | `CN(Cc1noc(C(C)(C)C)n1)Cc1ccccc1N1CCCCC1` | -2.13% | 28.64% | 0.4484% |
| 47 | `Cc1cc(-c2nn(C)c(Cl)c2CN2CC[C@H](CO)[C@@H](O)C2)no1` | 6.075% | -13.14% | -4.082% |
| 48 | `COc1ccccc1-n1nc(-c2ccco2)n(CC(=O)NC(C)C)c1=O` | 3.704% | -6.975% | -0.8% |
| 49 | `O=C(c1ccsc1)N1C[C@@H]2CCN(c3cccnc3)C[C@@H]2C1` | -5.021% | - | -1.97% |
| 50 | `O=C(O)C(F)(F)F.c1cn2c(n1)CN(Cc1ccsc1)CC(Cn1cncn1)C2` (stereo not given) | - | 21.8% | - |
| 51 | `CCc1ccc(CN2CCCC(CO)(CCOC)C2)cc1` (stereo not given) | 2.347% | 11.97% | 5.932% |
| 52 | `CC(C)Oc1cccc(C(O)CNC(=O)Nc2cccs2)c1` (stereo not given) | 1.212% | 2.249% | 7.143% |
| 53 | `O=C(O)c1nnn(-c2cc(F)cc(F)c2)c1-c1ccncc1` | -2.522% | 5.335% & 20.38% | 0% |
| 54 | `CCn1ccnc1-c1nccn1-c1ccccc1CN1CCOCC1` | -5.273% | 6.517% | 7.097% |
| 55 | `COc1ccc2cnn(CC(=O)NCC3CCCO3)c(=O)c2c1OC` (stereo not given) | -7.434% | 11.46% | 8.333% |
| 56 | `NC(=O)C(NC(=O)CSCc1ccc(Cl)s1)c1ccccc1` (stereo not given) | -9.029% | -2.883% | 6.863% |
| 57 | `CN1CCC/C1=N\S(=O)(=O)c1ccc(NC(=O)c2ccc(F)cc2)cc1` | 1.541% | 10.47% | 2.662% |
| 58 | `Cc1ccccc1NC(=O)NCCn1nc(C(F)(F)F)n(C)c1=O` | 0.1564% | 36.42% | 1.02% |
| 59 | `COc1ccc(CN2CCCn3cnc(COCC4CC4)c3C2)cc1.O=C(O)C(F)(F)F` | - | 0.9971% | - |
| 60 | `COCC(C)(O)CNC(=O)c1cc(-c2cc(OC)ccc2OC)nn1C` (stereo not given) | 2.055% | 26.75% | 0.5291% |
| 61 | `c1cncc(-c2cccc(-c3ccn(CCN4CCCCC4)n3)c2)c1` | 12.75% | -11.94% | 0% |
| 62 | `CCCC(=O)N1CCc2c(CNS(C)(=O)=O)cncc2C1` | -5.762% | - | 0.9524% |
| 63 | `CC(Nc1nc2c(cnn2C)c(=O)[nH]1)c1ccc(F)cc1` (stereo not given) | -3.578% | 20.67% | 5.978% |
| 64 | `O=C(c1ccc2[nH]ccc2c1)N1Cc2nc(CN3CCCC3)oc2C1` | -6.276% | -35.31% | 9.091% |
| 65 | `O=C(O)C(F)(F)F.O=C(O)C(F)(F)F.[H][C@@]12COC[C@]1(C(=O)NCc1ccccn1)CN(C1CCC1)C2` | - | 27.27% | - |
| 66 | `Cc1cc(NC(=O)NC(C)(C)c2nc(C)c(C)s2)no1` | -0.1142% | 9.41% | 6.329% |

Some entries from above, unchanged:

Result for O=C(O)C(F)(F)F.c1cn2c(n1)CN(Cc1ccsc1)CC(Cn1cncn1)C2 (stereo not given) was Leishmania in macrophages: 21.8%.
Result for Cc1cc(-c2nn(C)c(Cl)c2CN2CC[C@H](CO)[C@@H](O)C2)no1 was MtTrpRS: 6.075%; Leishmania in macrophages: -13.14%; TcHisRS: -4.082%.
Result for CN1CC[C@]2(CN(CC3CCOCC3)C[C@H]2c2ccccc2)C1=O.O=C(O)C(F)(F)F was Leishmania in macrophages: -12.75%.
Result for O=C(c1ccsc1)N1CCc2c(CN3CCCC3)n[nH]c2C1 was MtTrpRS: -5.297%; Leishmania in macrophages: 21.5%; TcHisRS: 8.458%.
Result for O=C(Nc1cccnc1N1CCSCC1)c1ccc2c(c1)CCC2 was MtTrpRS: -4.863%; Leishmania in macrophages: 44.22%; TcHisRS: 6.077%.

The values are deposited in ChEMBL (CHEMBL3988442, “University of Dundee, Small-Polar-MMV Screening Library” (2021)).